The supplement of paper PMC7411640
Counter-ions that a name gives are not always drawn. Some of the results follow. Single values are uncertain here, since repeats match poorly.

System: MDA-MB-468
Test: phospho-S6 immunofluorescence (DAPI-normalised), per-plate z-score; higher = higher phospho-S6 signal (less pathway suppression)
Conditions: 24 h
Protocol: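 GPCR-targeted compound library (MedChemExpress HY-L006) tested on MDA-MB-468 PTEN-null TNBC cells in 384-well plates at 0.1, 1 or 10 uM, combined with vehicle, GDC0941 450 nM or lapatinib 1 uM, for 24 h. Phospho-S6 (S240/244) immunofluorescence normalised to DAPI and expressed as a per-plate z-score; values are the mean of biological triplicates.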

[1] = compound 0.1 µM, co-treatment: GDC0941 450 nM
[2] = compound 0.1 µM, co-treatment: lapatinib 1 uM
[3] = compound 0.1 µM, co-treatment: vehicle
[4] = compound 1 µM, co-treatment: GDC0941 450 nM
[5] = compound 1 µM, co-treatment: lapatinib 1 uM
[6] = compound 1 µM, co-treatment: vehicle
[7] = compound 10 µM, co-treatment: GDC0941 450 nM
[8] = compound 10 µM, co-treatment: lapatinib 1 uM
[9] = compound 10 µM, co-treatment: vehicle

| Compound | phospho-S6 immunofluorescence (z-score) [1] | phospho-S6 immunofluorescence (z-score) [2] | phospho-S6 immunofluorescence (z-score) [3] | phospho-S6 immunofluorescence (z-score) [4] | phospho-S6 immunofluorescence (z-score) [5] | phospho-S6 immunofluorescence (z-score) [6] | phospho-S6 immunofluorescence (z-score) [7] | phospho-S6 immunofluorescence (z-score) [8] | phospho-S6 immunofluorescence (z-score) [9] |
| --- | --- | --- | --- | --- | --- | --- | --- | --- | --- |
| CCN(CCCCO)C(C)Cc1ccc(O)cc1 (stereo not drawn) [O-desmethyl Mebeverine alcohol (hydrochloride)] | 0.27 | -0.08 | -0.25 | -0.28 | -0.18 | -0.34 | -0.73 | -0.03 | -0.64 |
| O=C1CC[C@@]2(O)[C@H]3Cc4ccc(O)c5c4[C@@]2(CCN3CC2CC2)[C@H]1O5 [Naltrexone (Hydrochloride)] | 1.55 | 1.73 | 0.75 | 1.72 | 1.44 | 0.32 | 0.88 | 0.25 | 1.41 |
| O=C1CCC[C@@H]2[C@H]3CCCN4CCC[C@@H](CN12)[C@@H]34 [Matrine] | 0.53 | -0.03 | -0.04 | 0.07 | 0.19 | 0.01 | -0.52 | -0.53 | -0.24 |
| CN(C)C(=O)Oc1cc(OC(=O)N(C)C)cc(C(O)CNC(C)(C)C)c1 (stereo not drawn) [Bambuterol (hydrochloride)] | -0.62 | -1.13 | -0.26 | -0.71 | -1.48 | -0.62 | -0.5 | 0.49 | -0.4 |
| COc1ccc(C(=O)c2c(C)n(CCN3CCOCC3)c3cc(I)ccc23)cc1 | 1.41 | 1.44 | 1.62 | 2.07 | 0.97 | 1.23 | -3.18 | -1.01 | -3.47 |
| O=C(O[C@H]1CN2CCC1CC2)N(Cc1cc(F)c(F)c(F)c1)c1cccc(F)c1 [Tarafenacin (D-tartrate)] | 0.57 | 0.42 | 0.79 | 1.19 | 0.52 | 0.89 | 0.34 | -1.58 | 1.05 |
| COc1cc2c3c(c1OC)-c1ccccc1C[C@H]3N(C)CC2 [Nuciferine] | -0.64 | -0.78 | -0.26 | -0.52 | -0.54 | -0.76 | 0.21 | -0.74 | 0 |
| CC(C)[C@@H](CN1CC[C@@](C)(c2cccc(O)c2)[C@@H](C)C1)NC(=O)[C@H]1Cc2ccc(O)cc2CN1 [JDTic (dihydrochloride)] | 1.99 | -0.59 | 0.54 | 1.39 | -1.35 | 0.47 | 0.26 | -2.5 | 0.81 |
| C=CCN1C[C@H](C(=O)N(CCCN(C)C)C(=O)NCC)C[C@@H]2c3cccc4[nH]cc(c34)C[C@H]21 [Cabergoline] | 0.33 | 0.08 | -0.8 | 0.65 | -0.77 | -0.28 | 0.82 | -0.33 | -0.33 |
| CNCC(O)c1ccc(O)cc1 (stereo not drawn) [Synephrine (hydrochloride)] | -0.44 | -0.85 | 0.89 | 0.84 | -0.11 | -0.55 | 1.02 | 0.35 | 0.24 |
| Cc1c(C(=O)c2cccc3ccccc23)c2cccc3c2n1[C@H](CN1CCOCC1)CO3 [WIN 55,212-2 (Mesylate)] | -0.41 | -0.61 | -1.04 | -0.87 | -0.92 | -1.42 | -2.24 | -0.84 | -3.25 |
| CSCC[C@H](NC(=O)[C@H](Cc1ccccc1)NC(=O)CNC(=O)CNC(=O)[C@@H](N)Cc1ccc(O)cc1)C(=O)O | -0.32 | 0.59 | 0.61 | -0.17 | 0 | 1.54 | -0.41 | -0.12 | -0.05 |
| COc1ccc2[nH]cc(C3=CCNCC3)c2c1 | 0.49 | 0.52 | 0.84 | -0.21 | -0.03 | 0.49 | -0.19 | -2.58 | -0.11 |
| CN1CCC2=C(C1)c1ccccc1Cc1ccccc12 [Setiptiline (maleate)] | -0.5 | -0.43 | -1.65 | -0.11 | -1.75 | -0.46 | -0.68 | -1.28 | -1.11 |
| C[C@H]1CNCCc2ccc(Cl)cc21 [Lorcaserin (Hydrochloride)] | 0.17 | -0.45 | -0.09 | 0.12 | 0.44 | -0.53 | -1 | -0.25 | -0.95 |
| NCC(O)c1ccc(O)cc1 (stereo not drawn) [Octopamine (hydrochloride)] | 0.13 | 0.11 | 1.43 | -0.95 | 0.18 | 0.96 | 0.26 | 0.86 | 1.09 |
| CC(C)C[C@H]1C(=O)N2CCC[C@H]2[C@]2(O)O[C@](NC(=O)[C@@H]3C=C4c5cccc6[nH]c(Br)c(c56)C[C@H]4N(C)C3)(C(C)C)C(=O)N12 [Bromocriptine (mesylate)] | -0.66 | -0.84 | -0.47 | -0.4 | -0.97 | -1.26 | -3.83 | -3.57 | -1.61 |
| CCN(CC)C(=O)c1ccc(C2=CC3(CCNCC3)Oc3cccc(O)c32)cc1 | 0.01 | -0.48 | -0.63 | 0.19 | -1.39 | -1.39 | 0.32 | -0.78 | 0.88 |
| N[C@]1(C(=O)O)CC[C@H](C(=O)O)C1 [trans-ACPD] | 0.63 | 0.81 | -0.39 | 0.01 | -0.53 | -1.65 | 0.3 | 0.1 | -0.68 |
| C[C@@H]1CN(Cc2ccc(F)cc2)CCN1C(=O)COc1ccc(Cl)cc1NC(N)=O | -3.63 | -1.28 | -0.87 | -5.49 | -7.94 | -5.66 | -3.5 | -6.96 | -8.26 |
| COc1ccc2c(c1)[C@]13CCCC[C@@H]1[C@H](C2)N(C)CC3 [Dextromethorphan (hydrobromide hydrate)] | 0.78 | 0.88 | 0.11 | 0.04 | -0.4 | -0.4 | -0.24 | -0.31 | 0.42 |
| CC(C)(C)NCC(O)c1cc(Cl)c(N)c(Cl)c1 (stereo not drawn) [Clenbuterol (hydrochloride)] | 0.54 | 0.77 | 0.78 | -0.03 | 2.34 | 0.8 | 1.42 | 1.64 | 0.37 |

3 consecutive entries from above:

| Compound | phospho-S6 immunofluorescence (z-score) [1] | phospho-S6 immunofluorescence (z-score) [2] | phospho-S6 immunofluorescence (z-score) [3] | phospho-S6 immunofluorescence (z-score) [4] | phospho-S6 immunofluorescence (z-score) [5] | phospho-S6 immunofluorescence (z-score) [6] | phospho-S6 immunofluorescence (z-score) [7] | phospho-S6 immunofluorescence (z-score) [8] | phospho-S6 immunofluorescence (z-score) [9] |
| --- | --- | --- | --- | --- | --- | --- | --- | --- | --- |
| CN1CCC2=C(C1)c1ccccc1Cc1ccccc12 [Setiptiline (maleate)] | -0.5 | -0.43 | -1.65 | -0.11 | -1.75 | -0.46 | -0.68 | -1.28 | -1.11 |
| C[C@H]1CNCCc2ccc(Cl)cc21 [Lorcaserin (Hydrochloride)] | 0.17 | -0.45 | -0.09 | 0.12 | 0.44 | -0.53 | -1 | -0.25 | -0.95 |
| NCC(O)c1ccc(O)cc1 (stereo not drawn) [Octopamine (hydrochloride)] | 0.13 | 0.11 | 1.43 | -0.95 | 0.18 | 0.96 | 0.26 | 0.86 | 1.09 |
